Data as given in the supplement of paper PMC6411743.
± gives the standard deviation of the averaged measurements. Some of the results follow.

Protein sequences, listed by entry. Tags and fused reporters are not part of them. Lines headed by an entry give the natural chain unless they say otherwise; changes in a name come on top.
UniProt P61204: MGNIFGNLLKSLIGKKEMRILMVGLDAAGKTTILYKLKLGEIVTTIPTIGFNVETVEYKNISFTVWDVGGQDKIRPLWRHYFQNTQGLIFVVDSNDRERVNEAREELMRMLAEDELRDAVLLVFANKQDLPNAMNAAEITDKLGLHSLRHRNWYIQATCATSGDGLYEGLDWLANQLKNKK
UniProt P51116, whole entry: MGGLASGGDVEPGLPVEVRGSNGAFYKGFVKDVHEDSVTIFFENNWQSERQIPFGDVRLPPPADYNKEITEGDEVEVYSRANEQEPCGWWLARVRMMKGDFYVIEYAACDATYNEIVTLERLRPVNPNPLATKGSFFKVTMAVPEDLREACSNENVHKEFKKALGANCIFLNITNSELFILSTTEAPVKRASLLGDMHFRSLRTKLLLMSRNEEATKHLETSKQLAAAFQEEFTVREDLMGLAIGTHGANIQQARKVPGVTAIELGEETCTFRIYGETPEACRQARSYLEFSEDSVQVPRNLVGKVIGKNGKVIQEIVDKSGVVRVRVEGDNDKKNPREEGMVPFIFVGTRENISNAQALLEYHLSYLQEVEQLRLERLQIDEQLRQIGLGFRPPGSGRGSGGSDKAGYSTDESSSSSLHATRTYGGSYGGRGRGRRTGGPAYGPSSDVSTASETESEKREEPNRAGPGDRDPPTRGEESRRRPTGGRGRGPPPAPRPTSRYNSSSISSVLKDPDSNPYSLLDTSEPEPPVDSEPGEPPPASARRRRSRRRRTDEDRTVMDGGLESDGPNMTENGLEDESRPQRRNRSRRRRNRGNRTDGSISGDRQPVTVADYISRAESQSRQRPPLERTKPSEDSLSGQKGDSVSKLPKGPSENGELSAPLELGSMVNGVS
UniProt P62310: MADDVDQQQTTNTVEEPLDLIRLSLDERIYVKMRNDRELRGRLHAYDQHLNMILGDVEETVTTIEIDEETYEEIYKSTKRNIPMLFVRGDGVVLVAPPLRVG
UniProt P55081: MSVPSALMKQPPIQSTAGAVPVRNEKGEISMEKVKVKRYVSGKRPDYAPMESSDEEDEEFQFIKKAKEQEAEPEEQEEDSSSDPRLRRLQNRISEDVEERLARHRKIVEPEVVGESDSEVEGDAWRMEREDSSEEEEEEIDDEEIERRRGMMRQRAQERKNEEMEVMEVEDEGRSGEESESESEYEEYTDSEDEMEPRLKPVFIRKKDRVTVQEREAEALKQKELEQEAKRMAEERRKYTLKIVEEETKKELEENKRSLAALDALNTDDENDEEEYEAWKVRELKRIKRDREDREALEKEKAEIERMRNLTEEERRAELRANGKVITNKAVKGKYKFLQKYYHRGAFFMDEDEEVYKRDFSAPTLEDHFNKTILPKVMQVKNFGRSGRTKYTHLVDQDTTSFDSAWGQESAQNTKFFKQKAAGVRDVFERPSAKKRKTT
UniProt P55735: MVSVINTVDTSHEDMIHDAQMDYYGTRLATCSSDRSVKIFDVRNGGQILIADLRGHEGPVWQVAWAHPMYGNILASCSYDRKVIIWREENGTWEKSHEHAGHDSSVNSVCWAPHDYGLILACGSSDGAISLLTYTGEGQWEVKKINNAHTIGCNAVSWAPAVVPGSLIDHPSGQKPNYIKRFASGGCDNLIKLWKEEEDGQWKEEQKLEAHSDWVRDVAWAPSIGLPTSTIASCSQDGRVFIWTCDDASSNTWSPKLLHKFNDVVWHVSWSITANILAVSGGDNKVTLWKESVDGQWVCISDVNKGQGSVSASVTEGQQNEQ
UniProt P51970, whole entry: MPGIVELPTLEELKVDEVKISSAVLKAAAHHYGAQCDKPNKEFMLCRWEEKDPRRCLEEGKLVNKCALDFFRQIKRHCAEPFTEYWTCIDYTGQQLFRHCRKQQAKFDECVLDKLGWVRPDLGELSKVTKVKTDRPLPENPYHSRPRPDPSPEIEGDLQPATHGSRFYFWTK
UniProt P55957: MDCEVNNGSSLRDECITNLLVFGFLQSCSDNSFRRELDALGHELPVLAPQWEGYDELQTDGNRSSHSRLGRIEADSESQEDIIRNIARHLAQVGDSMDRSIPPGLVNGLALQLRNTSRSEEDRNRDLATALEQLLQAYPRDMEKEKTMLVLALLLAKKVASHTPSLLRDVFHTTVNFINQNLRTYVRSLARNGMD
UniProt P63279, whole entry: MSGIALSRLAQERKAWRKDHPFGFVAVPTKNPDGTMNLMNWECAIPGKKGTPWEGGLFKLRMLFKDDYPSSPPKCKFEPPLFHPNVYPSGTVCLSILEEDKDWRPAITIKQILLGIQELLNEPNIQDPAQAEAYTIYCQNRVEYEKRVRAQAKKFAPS
UniProt P52565: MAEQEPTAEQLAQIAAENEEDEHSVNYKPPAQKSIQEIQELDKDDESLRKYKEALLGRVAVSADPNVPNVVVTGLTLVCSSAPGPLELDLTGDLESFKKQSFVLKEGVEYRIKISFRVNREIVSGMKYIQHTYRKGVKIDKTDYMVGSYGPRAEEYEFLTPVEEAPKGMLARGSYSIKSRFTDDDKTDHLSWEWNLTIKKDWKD
UniProt P55347: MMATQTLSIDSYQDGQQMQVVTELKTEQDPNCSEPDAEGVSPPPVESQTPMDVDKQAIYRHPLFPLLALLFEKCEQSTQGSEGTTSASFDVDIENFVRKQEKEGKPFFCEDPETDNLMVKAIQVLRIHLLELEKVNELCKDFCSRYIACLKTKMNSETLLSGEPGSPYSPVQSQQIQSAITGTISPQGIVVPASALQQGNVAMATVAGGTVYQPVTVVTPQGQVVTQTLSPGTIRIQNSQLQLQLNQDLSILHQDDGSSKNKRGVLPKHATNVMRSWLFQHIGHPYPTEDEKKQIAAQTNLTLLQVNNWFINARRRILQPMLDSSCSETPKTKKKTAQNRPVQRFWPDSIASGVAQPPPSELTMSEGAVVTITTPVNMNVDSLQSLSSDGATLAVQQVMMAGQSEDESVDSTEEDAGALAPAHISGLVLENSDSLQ
UniProt P67870, whole entry: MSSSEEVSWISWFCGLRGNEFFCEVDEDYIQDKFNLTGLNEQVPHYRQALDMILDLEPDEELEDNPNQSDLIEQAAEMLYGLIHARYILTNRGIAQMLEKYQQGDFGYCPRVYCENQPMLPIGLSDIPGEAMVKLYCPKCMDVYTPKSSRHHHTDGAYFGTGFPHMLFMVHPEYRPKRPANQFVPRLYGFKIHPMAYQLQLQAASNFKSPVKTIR
UniProt P78318: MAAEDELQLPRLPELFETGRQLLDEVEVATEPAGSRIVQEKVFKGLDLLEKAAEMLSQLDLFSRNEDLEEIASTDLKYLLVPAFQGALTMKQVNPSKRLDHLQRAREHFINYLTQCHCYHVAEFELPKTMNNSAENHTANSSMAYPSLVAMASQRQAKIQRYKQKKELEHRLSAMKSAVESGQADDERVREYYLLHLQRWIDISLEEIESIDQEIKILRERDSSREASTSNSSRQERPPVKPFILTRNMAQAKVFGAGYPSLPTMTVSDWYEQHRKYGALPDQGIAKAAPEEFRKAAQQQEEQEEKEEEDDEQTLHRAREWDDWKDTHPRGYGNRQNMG
UniProt Q00013: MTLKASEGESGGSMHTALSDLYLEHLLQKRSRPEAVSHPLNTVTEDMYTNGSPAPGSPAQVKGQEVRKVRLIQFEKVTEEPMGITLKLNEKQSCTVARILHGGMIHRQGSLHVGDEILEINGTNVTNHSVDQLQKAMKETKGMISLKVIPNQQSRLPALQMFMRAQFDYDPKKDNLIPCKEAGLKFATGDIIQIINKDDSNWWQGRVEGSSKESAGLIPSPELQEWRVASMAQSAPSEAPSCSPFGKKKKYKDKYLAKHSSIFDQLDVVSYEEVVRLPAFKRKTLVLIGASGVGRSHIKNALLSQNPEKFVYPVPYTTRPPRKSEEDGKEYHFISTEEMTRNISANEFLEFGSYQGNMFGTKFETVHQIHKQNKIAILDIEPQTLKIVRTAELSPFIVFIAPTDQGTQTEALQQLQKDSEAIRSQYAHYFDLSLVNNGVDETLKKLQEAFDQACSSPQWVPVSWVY
UniProt P51003: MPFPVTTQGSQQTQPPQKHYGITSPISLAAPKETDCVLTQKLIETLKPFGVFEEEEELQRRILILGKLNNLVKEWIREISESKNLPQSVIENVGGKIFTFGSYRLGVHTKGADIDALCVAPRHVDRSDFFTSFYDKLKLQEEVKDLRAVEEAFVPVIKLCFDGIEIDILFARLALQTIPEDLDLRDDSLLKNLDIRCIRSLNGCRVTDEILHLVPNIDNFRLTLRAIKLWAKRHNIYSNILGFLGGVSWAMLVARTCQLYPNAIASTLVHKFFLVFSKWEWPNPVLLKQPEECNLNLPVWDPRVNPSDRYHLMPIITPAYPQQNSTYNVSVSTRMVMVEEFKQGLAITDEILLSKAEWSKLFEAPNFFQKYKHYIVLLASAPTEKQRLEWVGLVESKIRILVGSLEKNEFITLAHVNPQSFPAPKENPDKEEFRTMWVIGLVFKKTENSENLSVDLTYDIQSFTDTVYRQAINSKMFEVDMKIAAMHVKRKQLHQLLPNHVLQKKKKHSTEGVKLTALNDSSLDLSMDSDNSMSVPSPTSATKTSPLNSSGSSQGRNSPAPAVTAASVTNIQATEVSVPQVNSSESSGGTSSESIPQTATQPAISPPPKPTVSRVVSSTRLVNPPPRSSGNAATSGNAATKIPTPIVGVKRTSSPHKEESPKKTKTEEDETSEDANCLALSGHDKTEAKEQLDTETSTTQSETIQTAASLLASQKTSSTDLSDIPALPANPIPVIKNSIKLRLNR
UniProt P86790: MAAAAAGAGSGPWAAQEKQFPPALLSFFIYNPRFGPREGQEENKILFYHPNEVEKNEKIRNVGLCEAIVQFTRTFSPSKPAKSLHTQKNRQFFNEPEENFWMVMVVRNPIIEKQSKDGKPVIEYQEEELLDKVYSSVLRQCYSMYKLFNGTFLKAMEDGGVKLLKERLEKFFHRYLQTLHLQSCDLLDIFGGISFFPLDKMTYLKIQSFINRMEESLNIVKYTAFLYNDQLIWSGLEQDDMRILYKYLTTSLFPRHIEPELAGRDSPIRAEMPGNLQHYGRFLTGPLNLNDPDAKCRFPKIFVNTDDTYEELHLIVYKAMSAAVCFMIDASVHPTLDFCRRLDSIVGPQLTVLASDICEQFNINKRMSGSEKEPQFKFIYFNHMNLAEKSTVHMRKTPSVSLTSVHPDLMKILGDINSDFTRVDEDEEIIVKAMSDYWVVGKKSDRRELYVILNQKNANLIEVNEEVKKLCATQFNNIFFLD
UniProt P86791: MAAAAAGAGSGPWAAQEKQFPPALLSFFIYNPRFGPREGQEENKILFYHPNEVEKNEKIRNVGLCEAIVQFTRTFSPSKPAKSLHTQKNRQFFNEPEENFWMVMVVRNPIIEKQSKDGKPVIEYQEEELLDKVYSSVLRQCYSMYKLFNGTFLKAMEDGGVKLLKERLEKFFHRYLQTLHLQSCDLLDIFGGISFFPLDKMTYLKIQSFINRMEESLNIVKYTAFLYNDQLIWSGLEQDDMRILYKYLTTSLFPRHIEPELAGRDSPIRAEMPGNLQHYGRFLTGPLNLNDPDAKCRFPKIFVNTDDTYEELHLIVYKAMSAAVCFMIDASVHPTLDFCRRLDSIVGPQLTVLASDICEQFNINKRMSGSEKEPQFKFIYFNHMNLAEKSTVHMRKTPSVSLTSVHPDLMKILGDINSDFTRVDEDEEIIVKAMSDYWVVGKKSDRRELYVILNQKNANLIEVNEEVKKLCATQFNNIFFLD
UniProt P51798: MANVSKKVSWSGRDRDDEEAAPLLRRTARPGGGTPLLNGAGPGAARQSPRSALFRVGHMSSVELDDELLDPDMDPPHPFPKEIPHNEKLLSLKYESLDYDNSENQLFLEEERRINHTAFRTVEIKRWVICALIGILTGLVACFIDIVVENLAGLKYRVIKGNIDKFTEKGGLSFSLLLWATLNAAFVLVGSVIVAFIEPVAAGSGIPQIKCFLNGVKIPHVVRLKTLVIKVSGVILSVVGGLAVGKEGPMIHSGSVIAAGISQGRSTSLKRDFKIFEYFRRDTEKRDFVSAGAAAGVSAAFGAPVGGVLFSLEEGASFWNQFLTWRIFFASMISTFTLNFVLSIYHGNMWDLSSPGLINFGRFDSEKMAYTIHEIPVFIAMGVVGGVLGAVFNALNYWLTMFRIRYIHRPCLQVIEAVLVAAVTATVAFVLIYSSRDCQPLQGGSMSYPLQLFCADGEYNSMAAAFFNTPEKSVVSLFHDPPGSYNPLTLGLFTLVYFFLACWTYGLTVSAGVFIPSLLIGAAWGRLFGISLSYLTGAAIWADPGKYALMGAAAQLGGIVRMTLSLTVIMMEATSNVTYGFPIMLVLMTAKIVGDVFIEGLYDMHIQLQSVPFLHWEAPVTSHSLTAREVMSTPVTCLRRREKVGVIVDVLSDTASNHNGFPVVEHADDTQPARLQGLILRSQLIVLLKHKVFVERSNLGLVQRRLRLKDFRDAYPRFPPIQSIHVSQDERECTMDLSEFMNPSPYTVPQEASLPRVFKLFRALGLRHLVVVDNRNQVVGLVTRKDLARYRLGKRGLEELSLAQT
UniProt P62633: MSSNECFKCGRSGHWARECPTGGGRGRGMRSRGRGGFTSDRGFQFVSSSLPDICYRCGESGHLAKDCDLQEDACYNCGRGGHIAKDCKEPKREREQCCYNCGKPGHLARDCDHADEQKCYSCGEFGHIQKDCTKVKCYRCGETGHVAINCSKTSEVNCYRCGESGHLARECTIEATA

Compound: Nc1nc2c(ncn2[C@@H]2O[C@H](COP(=O)(O)OP(=O)(O)OP(=O)(O)O)[C@@H](O)[C@H]2O)c(=O)[nH]1 [guanosine triphosphate]
Assay: NP40-soluble protein abundance relative to vehicle (solubility fold change) (ratio); higher = more soluble protein in presence of GTP
In short: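 Each value is a fold change relative to the detergent-processed vehicle, calculated per replicate from vsn-normalised intensities. Jurkat crude lysate received eight concentrations (0.1 to 10 mM) for 10 min at room temperature and 3 min at 37 °C, then was solubilised in 0.8% NP40 with benzonase (60 min, 4 °C). The ultracentrifuged supernatant was TMT-labelled and run by LC-MS/MS in three independent experiments.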

Target	NP40-soluble protein abundance (concentration: 0.1mM)	NP40-soluble protein abundance (concentration: 0.5mM)	NP40-soluble protein abundance (concentration: 1mM)	NP40-soluble protein abundance (concentration: 2mM)	NP40-soluble protein abundance (concentration: 4mM)	NP40-soluble protein abundance (concentration: 6mM)	NP40-soluble protein abundance (concentration: 8mM)	NP40-soluble protein abundance (concentration: 10mM)
ARF3 (UniProt P61204)	1.03 ± 0.09	1.05 ± 0.092	0.925 ± 0.039	0.98 ± 0.12	0.926 ± 0.091	0.929 ± 0.074	0.857 ± 0.061	0.882 ± 0.12
UniProt P61964	0.981 ± 0.031	1.05 ± 0.039	1.01 ± 0.016	1.07 ± 0.06	1.1 ± 0.083	1.13 ± 0.085	1.11 ± 0.076	1.11 ± 0.058
UniProt P62241 and related entries	0.942 ± 0.085	1.05 ± 0.12	1.08 ± 0.26	1.01 ± 0.29	0.893 ± 0.35	0.836 ± 0.34	0.718 ± 0.28	0.765 ± 0.33
FXR2 (UniProt P51116)	1.08 ± 0.054	1.13 ± 0.081	1.27 ± 0.064	1.51 ± 0.14	1.8 ± 0.22	1.97 ± 0.25	2.13 ± 0.29	2.23 ± 0.35
UniProt P62805	0.891 ± 0.063	0.855 ± 0.058	0.972 ± 0.027	0.963 ± 0.053	1.08 ± 0.048	1.22 ± 0.054	1.2 ± 0.067	1.76 ± 0.14
UniProt P60891	1.03 ± 0.072	1.15 ± 0.18	1.18 ± 0.22	1.26 ± 0.25	1.29 ± 0.23	1.3 ± 0.28	1.28 ± 0.27	1.26 ± 0.23
UniProt P62310	0.934 ± 0.057	0.937 ± 0.045	0.96 ± 0.093	0.963 ± 0.085	0.957 ± 0.096	0.931 ± 0.091	0.963 ± 0.02	1.01 ± 0.053
MFAP1 (UniProt P55081)	0.906 ± 0.017	0.92 ± 0.043	1.02 ± 0.069	0.928 ± 0.1	0.919 ± 0.094	0.935 ± 0.12	0.999 ± 0.07	1.01 ± 0.092
SEC13 (UniProt P55735)	0.969 ± 0.029	0.942 ± 0.024	0.934 ± 0.021	0.94 ± 0.021	0.942 ± 0.015	0.947 ± 0.037	0.941 ± 0.027	0.921 ± 0.024
NDUFA8 (UniProt P51970)	0.912 ± 0.098	0.913 ± 0.04	1.05 ± 0.14	1.09 ± 0.071	1.08 ± 0.14	1.08 ± 0.089	1.03 ± 0.1	1.14 ± 0.15
UniProt P55957 and related entries	0.918 ± 0.15	0.854 ± 0.04	1.1 ± 0.13	1.09 ± 0.029	1.03 ± 0.053	1.06 ± 0.066	0.944 ± 0.13	1.09 ± 0.14
UniProt P60866 and related entries	1.01 ± 0.073	1.03 ± 0.096	1.05 ± 0.19	0.983 ± 0.2	0.879 ± 0.27	0.845 ± 0.26	0.728 ± 0.21	0.812 ± 0.25
UniProt P63279 and related entries	0.912 ± 0.056	0.907 ± 0.022	0.972 ± 0.094	0.959 ± 0.062	0.972 ± 0.043	0.971 ± 0.077	0.983 ± 0.13	1.06 ± 0.16
ACTR3 (UniProt P61158)	1.03 ± 0.05	1.07 ± 0.041	1.01 ± 0.036	0.998 ± 0.054	0.981 ± 0.038	0.988 ± 0.03	0.982 ± 0.015	0.944 ± 0.047
UniProt Q00537 and related entries	1.07 ± 0.066	1.08 ± 0.094	1.08 ± 0.044	1.14 ± 0.087	1.12 ± 0.11	1.16 ± 0.17	1.22 ± 0.17	1.17 ± 0.091
ARHGDIA (UniProt P52565)	0.958 ± 0.015	0.9706 ± 0.0064	0.919 ± 0.038	0.894 ± 0.046	0.858 ± 0.072	0.884 ± 0.062	0.868 ± 0.061	0.848 ± 0.078
UniProt P55347 and related entries	0.953 ± 0.1	0.959 ± 0.11	1.01 ± 0.099	0.937 ± 0.038	0.913 ± 0.068	0.935 ± 0.096	0.958 ± 0.091	0.961 ± 0.077
RPL7A (UniProt P62424)	0.939 ± 0.014	0.939 ± 0.019	0.975 ± 0.085	0.904 ± 0.083	0.849 ± 0.11	0.793 ± 0.1	0.747 ± 0.12	0.878 ± 0.14
UniProt P67870 and related entries	1.01 ± 0.021	0.9932 ± 0.0051	0.998 ± 0.034	1.01 ± 0.032	1.04 ± 0.043	1.04 ± 0.037	1.06 ± 0.028	1.05 ± 0.034
UniProt P78310-5|P78310 and related entries	0.974 ± 0.052	0.983 ± 0.14	1.02 ± 0.17	0.921 ± 0.12	0.93 ± 0.21	0.945 ± 0.17	0.96 ± 0.053	0.962 ± 0.17
UniProt P56270-2	0.94 ± 0.017	0.939 ± 0.04	0.954 ± 0.033	0.948 ± 0.065	0.981 ± 0.072	0.966 ± 0.081	1.02 ± 0.037	1.07 ± 0.075
IGBP1 (UniProt P78318)	0.923 ± 0.058	0.856 ± 0.039	1.05 ± 0.16	1.03 ± 0.07	1.01 ± 0.11	1.01 ± 0.074	0.989 ± 0.16	1.09 ± 0.19
MPP1 (UniProt Q00013)	1.011 ± 0.0097	1 ± 0.036	0.96 ± 0.025	0.9688 ± 0.0037	0.989 ± 0.048	0.934 ± 0.013	0.927 ± 0.048	0.903 ± 0.068
NUP107 (UniProt P57740)	1.06 ± 0.06	1.08 ± 0.043	1.06 ± 0.036	1.1 ± 0.054	1.11 ± 0.072	1.12 ± 0.04	1.13 ± 0.073	1.15 ± 0.097
PAPOLA (UniProt P51003)	0.949 ± 0.047	0.991 ± 0.043	0.889 ± 0.052	0.919 ± 0.058	0.868 ± 0.042	0.8908 ± 0.0041	0.871 ± 0.027	0.904 ± 0.061
PEX3 (UniProt P56589)	0.988 ± 0.025	1.05 ± 0.042	1 ± 0.017	0.923 ± 0.042	0.879 ± 0.03	0.951 ± 0.019	0.9369 ± 0.00049	0.8668 ± 0.0034
P86790 and related entries (UniProt P86791+P86790)	1.06 ± 0.015	1.06 ± 0.072	1.03 ± 0.063	0.99 ± 0.038	1.01 ± 0.068	0.948 ± 0.038	0.943 ± 0.029	0.924 ± 0.0097
MRPS25 (UniProt P82663)	1.1 ± 0.052	1.14 ± 0.11	1.2 ± 0.15	1.28 ± 0.23	1.28 ± 0.22	1.23 ± 0.23	1.18 ± 0.22	1.1 ± 0.17
UniProt P51798 and related entries	1.05 ± 0.039	1.02 ± 0.036	1.02 ± 0.036	0.988 ± 0.05	0.952 ± 0.068	1.02 ± 0.042	0.992 ± 0.071	0.925 ± 0.03
UniProt P62633 and related entries	1.04 ± 0.15	1.03 ± 0.14	1.03 ± 0.14	0.982 ± 0.11	0.996 ± 0.15	1.01 ± 0.15	1.06 ± 0.18	1.04 ± 0.19

Nothing new here: an excerpt of the list.
Target	NP40-soluble protein abundance (concentration: 0.1mM)	NP40-soluble protein abundance (concentration: 0.5mM)	NP40-soluble protein abundance (concentration: 1mM)	NP40-soluble protein abundance (concentration: 2mM)	NP40-soluble protein abundance (concentration: 4mM)	NP40-soluble protein abundance (concentration: 6mM)	NP40-soluble protein abundance (concentration: 8mM)	NP40-soluble protein abundance (concentration: 10mM)
SEC13 (UniProt P55735)	0.969 ± 0.029	0.942 ± 0.024	0.934 ± 0.021	0.94 ± 0.021	0.942 ± 0.015	0.947 ± 0.037	0.941 ± 0.027	0.921 ± 0.024
NDUFA8 (UniProt P51970)	0.912 ± 0.098	0.913 ± 0.04	1.05 ± 0.14	1.09 ± 0.071	1.08 ± 0.14	1.08 ± 0.089	1.03 ± 0.1	1.14 ± 0.15
